Several values for one entry are separate records, joined by “and”; a condition that tells them apart may be missing. Identical values can stand only once. This is one part of the list. Further columns of the screen follow, without active or inactive calls. Compounds called inactive in the main read-out are mostly missing here. Words in brackets tell the shape of the fitted curve; partial curves, single points and poor fits give uncertain potencies.

The assay can be described thus: qHTS Assay to Find Inhibitors of Chronic Active B-Cell Receptor Signaling. The conditions noted are these: ABC-DLBCL IkBa-CBG/CBR reporter, luminescence ratio (green luciferase fused to IkBa over red control in TMD8 lymphoma cells), 4 h. An outline of the steps:
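Compounds up to 46 uM were incubated four hours with TMD8 cells whose green CBG68 luciferase is fused to IkappaBalpha; red CBR luminescence normalised the signal, and concentration-effect curves were fitted to fusion, red and ratio data.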
On the technique in general: Quantitative high-throughput screening tests each substance at several concentrations.

[1] abbreviates: measured here: CBR red luminescence, cell number.
Where [2] appears, read: measured here: IkBa-CBG green luminescence.

Broadly, the AC50 is the concentration at which the activity in the assay is half-maximal. As to `Cc1cc(-c2nc3ncccc3o2)ccc1NC(=S)NC(=O)c1ccco1`, the AC50 under setting [1] is 10 µM [rising, partial curve, poor fit].
On the same count and under the same terms, as for `CC(=O)C1=C(C)Nc2ncnn2C1c1ccccc1OCc1ccccc1` (stereo not drawn), the figure is 29.1 µM [falling, single point]; as for `Cc1ccc(O)c(NC(=O)C2CC(c3c(F)cccc3Cl)=NO2)c1` (stereo not drawn), 15.8 µM [falling, partial curve, poor fit].
For the molecule `CCCCCSc1nnc(-c2ccccc2N)c(=O)[nH]1`, the AC50 under setting [1] is 20.6 µM [falling, single point].
With `c1cc(-c2nnn(CCOCCn3nnc(-c4ccncc4)n3)n2)ccn1`, under setting [1], the AC50 is 35.5 µM [rising, single point].
For the molecule `Cc1ccc2cc(S(=O)(=O)NCCCC(=O)O)ccc2c1`, the AC50 under setting [1] was 14.1 µM [falling, partial curve].
Regarding `COc1ccc2c(c1)OCC1=C2CCC2(C)C(=O)CC=C12` (stereo not drawn), the AC50 under setting [1] is 2.06 µM [falling, full curve, poor fit].
As for `Cc1ccc(NC(=O)CNC(=O)c2ccc(C)s2)nc1`, the AC50 under setting [1] is 29.1 µM [falling, single point].
In the case of `O=C1/C(=C\c2ccccc2)CCc2c1[nH]c1ccccc21`, under setting [1], the AC50 was 18.4 µM [falling, single point].
The same measure, in the same setting: next, `Cc1ccc(C)c(N(C(=O)Cn2nnc3ccccc32)C(C(=O)NC(C)(C)C)c2ccsc2)c1` (stereo not drawn): 5.62 µM [rising, single point]; `N#Cc1ccc(-c2csc(-c3ccno3)n2)cc1`: 8.91 µM [rising, partial curve, poor fit]; `C1CCC(C(CC2CCCCN2)C2CCCCC2)CC1` (stereo not drawn): 29.1 µM [falling, single point] and 10 µM [falling, partial curve, poor fit].
On to `FC(F)(F)Sc1ccc(NC(=S)NCc2ccccc2)cc1`, for which the AC50 was 35.5 µM [falling, single point] under setting [1] and 15.8 µM [rising, partial curve, poor fit] under setting [2].
Regarding `O=C(CCNc1ccc(F)cc1)c1ccco1`, the AC50 by setting is: under setting [1], 18.4 µM [falling, single point]; under setting [2], 32.6 µM [rising, partial curve, poor fit].
As for `Cn1c(=O)[nH]c(=O)c2c1nc(N1CCN(CCO)CC1)n2CCSc1nc2ccccc2s1`, the AC50 under setting [1] is 4.61 µM [falling, full curve, poor fit].
For the molecule `CCc1sc(C(=O)N2CCN(c3ncccn3)CC2)cc1Br`, the AC50 under setting [1] is 17.8 µM [rising, single point].
Turning to `Cc1nnc(SCCc2ccccc2)[nH]c1=O`, the concentration at half-maximal activity (AC50) under setting [1] is 20 µM [falling, single point].
The same measure, in the same setting: next, `O=C(CSc1nc2ccccc2[nH]1)c1cccs1`: 8.91 µM [falling, partial curve]; `O=C(CCc1ccccc1)Nc1ccccc1C(=O)NCc1ccco1`: 29.1 µM [falling, partial curve, poor fit].
Regarding `O=C(O)/C=C\C(=O)Nc1ccc(N2CCN(c3ccc(Cl)cc3)CC2)cc1`, the AC50 under setting [1] is 35.5 µM [rising, single point].
Regarding `O=S(=O)(c1cccs1)N1CCN(CCc2ccccc2)CC1`, the AC50 under setting [1] was 5.01 µM [rising, single point].
Turning to `BrC(=C\c1ccccc1)/C=N/N1CCN(c2ccccc2)CC1`, the AC50 is, setting by setting: under setting [1], 22.4 µM [falling, single point]; under setting [2], 22.4 µM [falling, single point].
As for `COc1cc(C(=O)NNC(=O)c2ccc(NC(=O)C(C)(C)C)cc2)cc(OC)c1OC`, the AC50 under setting [1] is 14.1 µM [rising, single point].
Same read-out and setting: as for `Cc1cccc(N=C2NN=C(c3c[nH]c4ccccc34)CS2)c1`, the figure is 29.1 µM [falling, single point]; as for `COc1ccc(CCNC(=O)COC(=O)c2ccc(C)s2)cc1`, 29.1 µM [rising, single point]; as for `Cc1cc(-c2ccc(C(C)C)c(S(=O)(=O)Nc3cc(C)on3)c2)on1`, 8.91 µM [rising, partial curve].
Regarding `O=C(COC(=O)c1ccccc1O)Nc1cccc2ccccc12`, under setting [1], the AC50 is 0.411 µM [falling, full curve].
Regarding `COC(=O)c1ccccc1NC(=O)Nc1cccnc1`, the AC50 under setting [1] was 10 µM [falling, partial curve, poor fit].
On the same count and under the same terms, next, `COc1cc(NC(=O)CNC(c2ccccc2)c2ccccc2)cc(OC)c1OC`: 35.5 µM [falling, single point].
Regarding `Cc1ccc(C(=O)NCCc2nnc3ccc(SCC(=O)Nc4ccc(C)cc4C)nn23)cc1`, the AC50 under setting [1] was 11.6 µM [rising, partial curve, poor fit].
Take `CCn1cc(CN2CCc3c([nH]c4ccccc34)C2c2ccc(F)c(OC)c2)c(C)n1` (stereo not drawn): under setting [1], the AC50 is 35.5 µM [falling, single point].
With `O=C(O)c1ccc(/C=N/NC(=S)NC2CCCCC2)cc1`, the AC50 under setting [1] is 35.5 µM [falling, single point].
As to `CCOC(=O)C1CCN(C(=O)Cn2cnc3sc(C)c(S(=O)(=O)N4CCOCC4)c3c2=O)CC1`, the AC50 under setting [1] is 3.16 µM [falling, single point].
For the molecule `COc1ccccc1OCCn1cc(C(=O)c2ccco2)c2ccccc21`, the AC50 under setting [1] is 10 µM [falling, partial curve].
Turning to `Cc1cccc(-n2ncc3c(NCc4ccccn4)ncnc32)c1`, under setting [1], the AC50 is 7.94 µM [falling, partial curve, poor fit].
On to `COc1ccc(OC)c(NC(=O)CSc2nnc(C3CCCCC3)n2N)c1`, for which the AC50 under setting [1] is 1.64 µM [falling, full curve, poor fit].
Consider `CCc1ccc(-c2nc(SCC(=O)c3c(N)n(C4CC4)c(=O)[nH]c3=O)n[nH]2)cc1`, for which the AC50 under setting [1] was 6.51 µM [rising, single point].
In the case of `O=C(COC(=O)c1ccc(O)cc1)Nc1cccc(S(=O)(=O)N2CCCCC2)c1`, under setting [1], the AC50 is 5.01 µM [falling, partial curve].
As to `CCOC(=O)C1CCN(C(=O)c2ccc3c(=O)n4nc(Nc5ccccc5)sc4nc3c2)CC1`, the AC50 under setting [1] was 12.6 µM [falling, partial curve, poor fit].
For `COc1cc(C(c2c(C)[nH][nH]c2=O)c2c(C)[nH][nH]c2=O)ccc1OS(=O)(=O)c1ccccc1`, under setting [1], the AC50 is 6.51 µM [rising, single point].

(Values after PubChem BioAssay AID493014 (National Center for Advancing Translational Sciences (NCATS), 2011).)
